Values from PubChem BioAssay AID743454 (Peter MacCallum Cancer Centre, 2014)

Screen: 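Knock-downs lowering viability or raising caspase 3/7 activity in vorinostat-treated resistant cells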 (primary screen)
System: human HCT116-VR colon cancer cells, selected for vorinostat resistance
Knock-down reagent: siRNA pool against human genes, 40 nM siRNA pool
Duration: vorinostat for 24 h, read-out about 72 h after transfection
Conditions: vorinostat at 2.5 µM final
Detection: 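Cell viability by CellTiter-Fluor and caspase 3/7 activity by luminescence, each scaled to mock wells per plate, duplicates averaged, then robust z-scored over all plates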
Reading the numbers: viability robust z-score: higher = more viable cells than screen typical; caspase robust z-score: higher = more caspase 3/7 activity than screen typical
Rule for the call: 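Hits are knock-downs in viability class RV1/RV2 or caspase class CA1/CA2, excluding ones that killed cells in the no-drug cell-count arm; hits then retested with single siRNAs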
The deposit covers about 18,000 reagents; this is a part drawn at random. Of all reagents, 450 (2.5%) are marked active. 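Single biological run; no consistent viability z cut-off exists, so the class columns, not z-scores, define the calls.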 Unmarked entries are inactive.

Against CYP27A1 (cytochrome P450 family 27 subfamily A member 1), the entry reads viability hit class no change; caspase hit class no change; viability robust z-score 1.8; caspase robust z-score -0.97. After knock-down of CRY2 (cryptochrome circadian regulator 2), the screen gave viability hit class no change; caspase hit class no change; viability robust z-score -0.38; caspase robust z-score -0.49. Knock-down of POU2AF1 (POU class 2 homeobox associating factor 1) resulted in: viability hit class no change; caspase hit class no change; viability robust z-score 1.91; caspase robust z-score 0.28. KLF9 (KLF transcription factor 9) gave viability hit class no change; caspase hit class no change; viability robust z-score -0.62; caspase robust z-score 0.45. After knock-down of ZBTB10 (zinc finger and BTB domain containing 10) the results were viability hit class no change; caspase hit class no change; viability robust z-score 1.06; caspase robust z-score -0.4. Silencing of GRIN2B (glutamate ionotropic receptor NMDA type subunit 2B) gave: viability hit class no change; caspase hit class no change; viability robust z-score -0.29; caspase robust z-score 0.46.

Silencing of CEP72 (centrosomal protein 72) resulted in: viability hit class no change; caspase hit class no change; viability robust z-score -3.25; caspase robust z-score -0.55.

In a second layout: results already given
Gene,viability hit class,caspase hit class,viability robust z-score,caspase robust z-score
CRY2 (cryptochrome circadian regulator 2),no change,no change,-0.38,-0.49
POU2AF1 (POU class 2 homeobox associating factor 1),no change,no change,1.91,0.28

Next records:
TTL (tubulin tyrosine ligase) scored viability hit class no change; caspase hit class no change; viability robust z-score -0.27; caspase robust z-score -0.37. KRT10-AS1 (KRT10 antisense RNA 1) showed viability hit class no change; caspase hit class no change; viability robust z-score 0.99; caspase robust z-score -0.92. After knock-down of CCNT2 (cyclin T2), the record shows viability hit class no change; caspase hit class no change; viability robust z-score -0.3; caspase robust z-score 0.7. TRIM43 (tripartite motif containing 43) scored viability hit class no change; caspase hit class no change; viability robust z-score 0.82; caspase robust z-score -0.14. With knock-down of KRTAP4-7 (keratin associated protein 4-7), the record shows viability hit class no change; caspase hit class no change; viability robust z-score 0.11; caspase robust z-score -0.86.
